Test results as given in the supplement of paper PMC10849652.
The other results are listed elsewhere or left out.

The chains behind the UniProt entries cited, without tags or fusion partners. Where a name states a change or a piece, a line headed by the entry shows the natural chain unless it says otherwise.
UniProt O60337: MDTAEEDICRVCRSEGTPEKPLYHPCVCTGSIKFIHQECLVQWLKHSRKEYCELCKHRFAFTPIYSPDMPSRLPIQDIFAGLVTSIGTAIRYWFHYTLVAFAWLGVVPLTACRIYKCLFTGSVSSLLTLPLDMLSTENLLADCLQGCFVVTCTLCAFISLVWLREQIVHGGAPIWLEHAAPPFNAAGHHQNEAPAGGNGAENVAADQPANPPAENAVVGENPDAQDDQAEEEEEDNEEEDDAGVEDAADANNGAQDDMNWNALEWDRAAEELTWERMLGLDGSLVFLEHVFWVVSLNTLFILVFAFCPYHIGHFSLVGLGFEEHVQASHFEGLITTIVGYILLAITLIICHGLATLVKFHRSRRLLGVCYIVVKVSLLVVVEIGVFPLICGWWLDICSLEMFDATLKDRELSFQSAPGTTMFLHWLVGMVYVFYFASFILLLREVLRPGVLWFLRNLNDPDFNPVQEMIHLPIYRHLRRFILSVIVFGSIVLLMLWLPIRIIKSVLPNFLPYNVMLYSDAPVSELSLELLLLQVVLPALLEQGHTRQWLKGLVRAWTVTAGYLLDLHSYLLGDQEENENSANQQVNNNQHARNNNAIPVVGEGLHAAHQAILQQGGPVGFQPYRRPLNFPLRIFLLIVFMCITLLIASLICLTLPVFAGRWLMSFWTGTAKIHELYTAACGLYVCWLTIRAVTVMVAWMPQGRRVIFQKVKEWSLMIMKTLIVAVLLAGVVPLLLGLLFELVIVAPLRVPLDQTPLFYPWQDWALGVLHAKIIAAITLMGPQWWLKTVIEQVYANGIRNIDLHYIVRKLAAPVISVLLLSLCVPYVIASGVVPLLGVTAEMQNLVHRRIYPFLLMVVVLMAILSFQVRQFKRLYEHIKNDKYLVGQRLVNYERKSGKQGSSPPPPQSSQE
UniProt P56192: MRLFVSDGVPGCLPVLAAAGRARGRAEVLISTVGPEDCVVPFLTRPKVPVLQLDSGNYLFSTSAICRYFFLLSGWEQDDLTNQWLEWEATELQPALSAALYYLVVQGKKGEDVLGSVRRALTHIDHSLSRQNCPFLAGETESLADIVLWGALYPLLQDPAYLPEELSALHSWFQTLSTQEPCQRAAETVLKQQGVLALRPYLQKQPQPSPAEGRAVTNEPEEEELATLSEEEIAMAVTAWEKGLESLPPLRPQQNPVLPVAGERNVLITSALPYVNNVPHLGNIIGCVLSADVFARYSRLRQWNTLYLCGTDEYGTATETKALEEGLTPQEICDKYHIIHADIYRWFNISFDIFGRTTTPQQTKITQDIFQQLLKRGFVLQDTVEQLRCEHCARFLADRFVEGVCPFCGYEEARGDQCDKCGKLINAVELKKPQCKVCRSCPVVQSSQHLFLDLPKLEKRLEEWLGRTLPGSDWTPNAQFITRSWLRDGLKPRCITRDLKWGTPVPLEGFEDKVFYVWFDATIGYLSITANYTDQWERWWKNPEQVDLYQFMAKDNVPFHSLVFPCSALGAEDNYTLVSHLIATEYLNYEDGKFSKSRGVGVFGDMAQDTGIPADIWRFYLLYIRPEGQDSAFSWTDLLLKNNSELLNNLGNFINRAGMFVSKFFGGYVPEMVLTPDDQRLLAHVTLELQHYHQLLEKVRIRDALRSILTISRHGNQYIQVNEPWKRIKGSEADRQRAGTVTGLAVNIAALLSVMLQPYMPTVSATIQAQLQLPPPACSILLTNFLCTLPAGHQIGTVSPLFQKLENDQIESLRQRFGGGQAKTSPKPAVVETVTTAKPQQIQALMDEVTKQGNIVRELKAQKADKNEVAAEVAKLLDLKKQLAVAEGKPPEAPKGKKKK
UniProt P43366: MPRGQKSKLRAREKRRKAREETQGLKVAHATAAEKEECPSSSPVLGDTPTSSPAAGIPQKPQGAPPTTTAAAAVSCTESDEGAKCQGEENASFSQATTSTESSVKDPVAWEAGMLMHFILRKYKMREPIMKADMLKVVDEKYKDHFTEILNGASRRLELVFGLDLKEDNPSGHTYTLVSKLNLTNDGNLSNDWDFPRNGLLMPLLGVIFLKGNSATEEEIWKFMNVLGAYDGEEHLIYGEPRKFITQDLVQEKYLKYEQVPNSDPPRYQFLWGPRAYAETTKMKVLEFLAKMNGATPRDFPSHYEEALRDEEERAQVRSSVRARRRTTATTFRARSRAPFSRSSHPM
UniProt Q8ND56: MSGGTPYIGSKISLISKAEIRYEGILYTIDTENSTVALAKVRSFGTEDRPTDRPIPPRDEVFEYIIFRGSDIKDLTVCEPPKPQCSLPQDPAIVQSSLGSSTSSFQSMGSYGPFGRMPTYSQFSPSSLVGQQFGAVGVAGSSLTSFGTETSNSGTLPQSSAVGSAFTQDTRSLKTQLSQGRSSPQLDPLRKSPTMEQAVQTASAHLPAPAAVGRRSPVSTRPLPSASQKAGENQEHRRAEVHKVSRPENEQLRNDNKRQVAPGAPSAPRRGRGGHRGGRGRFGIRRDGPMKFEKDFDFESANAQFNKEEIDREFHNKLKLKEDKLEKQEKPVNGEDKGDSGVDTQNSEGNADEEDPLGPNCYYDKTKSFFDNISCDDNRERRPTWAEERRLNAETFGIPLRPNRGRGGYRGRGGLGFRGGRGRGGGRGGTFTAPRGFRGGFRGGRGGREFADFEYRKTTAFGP
UniProt P45985: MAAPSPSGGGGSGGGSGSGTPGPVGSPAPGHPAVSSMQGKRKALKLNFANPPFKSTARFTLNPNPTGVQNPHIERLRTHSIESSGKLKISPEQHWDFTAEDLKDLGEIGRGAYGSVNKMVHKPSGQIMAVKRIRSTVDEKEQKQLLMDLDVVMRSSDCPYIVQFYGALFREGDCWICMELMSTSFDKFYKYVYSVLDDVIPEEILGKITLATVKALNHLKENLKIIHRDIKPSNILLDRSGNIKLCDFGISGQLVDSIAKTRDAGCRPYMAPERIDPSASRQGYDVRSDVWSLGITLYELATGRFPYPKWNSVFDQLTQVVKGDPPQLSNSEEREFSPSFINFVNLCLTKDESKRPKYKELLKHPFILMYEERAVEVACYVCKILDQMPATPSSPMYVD
UniProt Q8N5G2: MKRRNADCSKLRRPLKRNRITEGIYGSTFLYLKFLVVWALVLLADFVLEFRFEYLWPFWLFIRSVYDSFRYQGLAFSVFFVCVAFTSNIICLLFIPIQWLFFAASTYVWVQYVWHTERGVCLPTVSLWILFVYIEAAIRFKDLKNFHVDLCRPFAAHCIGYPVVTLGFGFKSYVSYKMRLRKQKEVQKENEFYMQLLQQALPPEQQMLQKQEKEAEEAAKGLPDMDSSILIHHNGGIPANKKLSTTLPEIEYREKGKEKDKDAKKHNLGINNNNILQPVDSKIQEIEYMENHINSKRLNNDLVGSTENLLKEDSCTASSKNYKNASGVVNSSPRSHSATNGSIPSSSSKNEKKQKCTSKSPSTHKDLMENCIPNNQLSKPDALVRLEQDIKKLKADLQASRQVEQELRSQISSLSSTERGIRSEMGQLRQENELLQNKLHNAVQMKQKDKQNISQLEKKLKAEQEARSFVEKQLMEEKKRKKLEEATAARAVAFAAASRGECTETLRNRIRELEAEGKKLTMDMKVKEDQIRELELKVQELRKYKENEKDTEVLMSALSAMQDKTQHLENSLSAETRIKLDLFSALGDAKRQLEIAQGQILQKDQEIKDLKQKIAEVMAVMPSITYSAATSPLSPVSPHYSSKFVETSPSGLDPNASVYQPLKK
UniProt Q16659, whole entry, looked up: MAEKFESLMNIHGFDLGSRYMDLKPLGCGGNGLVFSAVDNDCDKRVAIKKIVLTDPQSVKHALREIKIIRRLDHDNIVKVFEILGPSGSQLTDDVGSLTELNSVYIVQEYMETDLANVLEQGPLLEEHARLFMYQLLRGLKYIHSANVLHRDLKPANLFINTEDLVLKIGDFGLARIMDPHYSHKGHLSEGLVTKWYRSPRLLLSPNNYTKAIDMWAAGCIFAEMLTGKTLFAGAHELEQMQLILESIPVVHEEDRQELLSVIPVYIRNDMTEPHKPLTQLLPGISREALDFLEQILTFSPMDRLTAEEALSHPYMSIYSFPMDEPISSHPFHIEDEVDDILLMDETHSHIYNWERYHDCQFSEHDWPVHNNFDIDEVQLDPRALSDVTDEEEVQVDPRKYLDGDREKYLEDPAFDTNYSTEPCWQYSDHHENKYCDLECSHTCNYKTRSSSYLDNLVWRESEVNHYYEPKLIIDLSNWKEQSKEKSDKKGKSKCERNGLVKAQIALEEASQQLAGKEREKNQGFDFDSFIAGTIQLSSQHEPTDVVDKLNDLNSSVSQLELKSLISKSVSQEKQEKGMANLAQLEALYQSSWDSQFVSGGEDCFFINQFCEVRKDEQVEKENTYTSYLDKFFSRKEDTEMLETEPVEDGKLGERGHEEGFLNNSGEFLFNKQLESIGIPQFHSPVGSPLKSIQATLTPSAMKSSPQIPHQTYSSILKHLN
UniProt O15116: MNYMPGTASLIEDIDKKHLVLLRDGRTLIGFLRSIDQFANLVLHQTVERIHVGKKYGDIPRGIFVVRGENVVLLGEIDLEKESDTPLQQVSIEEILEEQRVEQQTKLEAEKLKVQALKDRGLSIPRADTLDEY
UniProt P49641: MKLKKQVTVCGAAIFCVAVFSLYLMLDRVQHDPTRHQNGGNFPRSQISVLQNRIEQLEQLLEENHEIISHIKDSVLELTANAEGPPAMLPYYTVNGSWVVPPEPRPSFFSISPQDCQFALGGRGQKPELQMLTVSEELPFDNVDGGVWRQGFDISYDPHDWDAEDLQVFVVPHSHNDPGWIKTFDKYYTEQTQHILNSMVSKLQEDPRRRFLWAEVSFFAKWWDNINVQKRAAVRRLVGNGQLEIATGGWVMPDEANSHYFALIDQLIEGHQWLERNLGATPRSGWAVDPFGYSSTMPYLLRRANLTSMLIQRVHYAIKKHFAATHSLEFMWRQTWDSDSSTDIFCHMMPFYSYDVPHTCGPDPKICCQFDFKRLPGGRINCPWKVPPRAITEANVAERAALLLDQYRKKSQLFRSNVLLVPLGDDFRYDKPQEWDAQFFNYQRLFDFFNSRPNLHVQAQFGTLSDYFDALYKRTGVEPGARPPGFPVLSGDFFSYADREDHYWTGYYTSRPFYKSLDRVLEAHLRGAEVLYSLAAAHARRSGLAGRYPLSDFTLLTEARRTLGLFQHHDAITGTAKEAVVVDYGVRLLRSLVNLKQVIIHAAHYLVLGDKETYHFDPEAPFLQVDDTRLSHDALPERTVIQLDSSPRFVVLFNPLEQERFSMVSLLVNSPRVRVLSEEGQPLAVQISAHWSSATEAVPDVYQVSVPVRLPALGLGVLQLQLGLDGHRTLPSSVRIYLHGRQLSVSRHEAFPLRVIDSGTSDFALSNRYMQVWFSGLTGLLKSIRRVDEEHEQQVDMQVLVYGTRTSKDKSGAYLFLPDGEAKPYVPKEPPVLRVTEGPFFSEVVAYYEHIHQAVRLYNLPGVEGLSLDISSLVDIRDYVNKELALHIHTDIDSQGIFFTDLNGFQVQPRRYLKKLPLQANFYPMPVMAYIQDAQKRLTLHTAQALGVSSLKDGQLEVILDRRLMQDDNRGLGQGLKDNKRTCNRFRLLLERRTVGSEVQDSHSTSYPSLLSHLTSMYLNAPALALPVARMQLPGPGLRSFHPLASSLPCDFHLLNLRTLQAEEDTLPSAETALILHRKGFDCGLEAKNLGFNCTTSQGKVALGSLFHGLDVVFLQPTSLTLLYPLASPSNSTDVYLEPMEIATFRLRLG
UniProt Q5U5X0: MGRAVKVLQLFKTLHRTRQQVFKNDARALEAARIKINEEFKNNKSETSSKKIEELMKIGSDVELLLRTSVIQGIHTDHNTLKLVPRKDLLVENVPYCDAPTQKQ
UniProt Q9BQ69: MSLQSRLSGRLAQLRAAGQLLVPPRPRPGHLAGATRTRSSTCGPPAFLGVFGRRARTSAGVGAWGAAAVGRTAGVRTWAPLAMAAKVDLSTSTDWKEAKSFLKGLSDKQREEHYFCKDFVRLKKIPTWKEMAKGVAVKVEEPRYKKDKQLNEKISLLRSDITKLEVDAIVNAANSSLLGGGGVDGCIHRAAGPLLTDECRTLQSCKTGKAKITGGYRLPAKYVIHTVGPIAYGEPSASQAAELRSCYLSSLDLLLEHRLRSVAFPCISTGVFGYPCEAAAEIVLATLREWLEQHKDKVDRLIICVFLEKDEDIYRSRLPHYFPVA

Tests used:
Test in all cases: log2 fold change, soluble protein after heating vs DMSO (PISA); higher = thermal stabilisation; K562 cells, 10 uM, 30 min; active = over 0.2 and 3.5 SD of the protein, either way, in both replicates (recomputed)
saracatinib = compound: CN1CCN(CCOc2cc(OC3CCOCC3)c3c(Nc4c(Cl)ccc5c4OCO5)ncnc3c2)CC1 [saracatinib]
Summary of the method: (§1)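 K562 cells at 2×10^6 cells/mL were given 10 μM compound for 30 min. Aliquots then went through 3 min of heating across 48°C-58°C, were pooled, and were extracted in PBS with 0.5% NP-40 at 4°C, and the supernatant after 21,000xg for 90 min was quantified by TMTpro 16plex LC-MS/MS with channel sums equalised. Thermal stability relative to control samples, from duplicates, is given as log2 fold change.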

sotrastaurin = compound: CN1CCN(c2nc(C3=C(c4c[nH]c5ccccc45)C(=O)NC3=O)c3ccccc3n2)CC1 [sotrastaurin]
Summary of the method: as §1

alvocidib = compound: CN1CC[C@H](c2c(O)cc(O)c3c(=O)cc(-c4ccccc4Cl)oc23)[C@H](O)C1 [alvocidib]
Summary of the method: as §1

Tubastatin A = compound: CN1CCc2c(c3ccccc3n2Cc2ccc(C(=O)NO)cc2)C1 [Tubastatin A]
Summary of the method: as §1

[1] = compound: CNC(=O)C1=CC=CC=C1NC2=NC(=NC=C2Cl)NC3=C(C=C(C=C3)N4CCOCC4)OC
Summary of the method: as §1

defactinib = compound: CNC(=O)c1ccc(Nc2ncc(C(F)(F)F)c(NCc3nccnc3N(C)S(C)(=O)=O)n2)cc1 [defactinib]
Summary of the method: as §1

rucaparib = compound: CNCc1ccc(-c2[nH]c3cc(F)cc4c3c2CCNC4=O)cc1 [rucaparib]
Summary of the method: as §1

[2] = compound: CNc1nc(-c2ccc3c(N)n[nH]c3c2)cc(N2C[C@@H](C(=O)NC3CCCCC3)CC[C@H]2C)n1
Summary of the method: as §1

encorafenib = compound: COC(=O)N[C@@H](C)CNc1nccc(-c2cn(C(C)C)nc2-c2cc(Cl)cc(NS(C)(=O)=O)c2F)n1 [encorafenib]
Summary of the method: as §1

[3] = compound: COC(=O)[C@H](CCSC)NC(=O)C1=C(C=C(C=C1)NC[C@H](CS)N)C2=CC=CC=C2
Summary of the method: as §1

[4] = compound: COC1=CC=C(C=C1)CN2C=CC3=C2C=C(C=C3)C(=O)NO
Summary of the method: as §1

filanesib = compound: CON(C)C(=O)N1N=C(c2cc(F)ccc2F)S[C@@]1(CCCN)c1ccccc1 [filanesib]
Summary of the method: as §1

zotarolimus = compound: CO[C@H]1C[C@@H]2CC[C@@H](C)[C@@](O)(O2)C(=O)C(=O)N2CCCC[C@H]2C(=O)O[C@H]([C@H](C)C[C@@H]2CC[C@H](n3cnnn3)[C@H](OC)C2)CC(=O)[C@H](C)/C=C(\C)[C@@H](O)[C@@H](OC)C(=O)[C@H](C)C[C@H](C)/C=C/C=C/C=C/1C [zotarolimus]
Summary of the method: as §1

idasanutlin = compound: COc1cc(C(=O)O)ccc1NC(=O)[C@@H]1N[C@@H](CC(C)(C)C)[C@](C#N)(c2ccc(Cl)cc2F)[C@H]1c1cccc(Cl)c1F [idasanutlin]
Summary of the method: as §1

alisertib = compound: COc1cc(Nc2ncc3c(n2)-c2ccc(Cl)cc2C(c2c(F)cccc2OC)=NC3)ccc1C(=O)O [alisertib]
Summary of the method: as §1

[5] = compound: COc1cc2nc(-c3cc(F)ccc3O)nc(N[C@@H]3CNC[C@H]3C(C)(C)O)c2cc1OC
Summary of the method: as §1

gefitinib = compound: COc1cc2ncnc(Nc3ccc(F)c(Cl)c3)c2cc1OCCCN1CCOCC1 [gefitinib]
Summary of the method: as §1

[6] = compound: COc1cccc2cc(-c3nc([C@H]4CC[C@H](C(=O)O)CC4)n4ncnc(N)c34)[nH]c12
Summary of the method: as §1

lapatinib = compound: CS(=O)(=O)CCNCc1ccc(-c2ccc3ncnc(Nc4ccc(OCc5cccc(F)c5)c(Cl)c4)c3c2)o1 [lapatinib]
Summary of the method: as §1

pictilisib = compound: CS(=O)(=O)N1CCN(Cc2cc3nc(-c4cccc5[nH]ncc45)nc(N4CCOCC4)c3s2)CC1 [pictilisib]
Summary of the method: as §1

Measured: log2 fold change

MARCHF6 (UniProt O60337)
inactive: saracatinib 0.026 | sotrastaurin -0.051 | alvocidib -0.029 | Tubastatin A -0.018 | [1] -0.007 | defactinib -0.006 | rucaparib -0.016 | [2] -0.011 | encorafenib 0.031 | [3] -0.004 | [4] -0.066 | filanesib -0.264 | zotarolimus 0.034 | idasanutlin 0.087 | alisertib -0.062 | [5] -0.133 | gefitinib -0.129 | [6] 0.084 | lapatinib 0.142 | pictilisib 0.025

MARS (UniProt P56192)
inactive: saracatinib -0.017 | sotrastaurin -0.024 | alvocidib 0.042 | Tubastatin A -0.011 | [1] -0.045 | defactinib 0.05 | rucaparib 0.137 | [2] 0.04 | encorafenib 0.081 | [3] -0.005 | [4] 0.004 | filanesib 0.058 | zotarolimus 0.04 | idasanutlin -0.017 | alisertib -0.089 | [5] -0.007 | gefitinib 0 | [6] -0.038 | lapatinib 0.009 | pictilisib -0.065

MALSU1 (UniProt Q96EH3)
inactive: saracatinib 0.049 | sotrastaurin 0.016 | alvocidib -0.086 | Tubastatin A 0.036 | [1] -0.002 | defactinib 0.023 | rucaparib -0.01 | [2] -0.03 | encorafenib 0.026 | [3] -0.039 | [4] -0.025 | filanesib 0.02 | zotarolimus 0.014 | idasanutlin 0.001 | alisertib -0.043 | [5] -0.038 | gefitinib 0.011 | [6] 0.085 | lapatinib 0.017 | pictilisib 0.026

MAPRE2 (UniProt Q15555)
inactive: saracatinib 0 | sotrastaurin -0.089 | alvocidib -0.078 | Tubastatin A 0.047 | [1] -0.064 | defactinib -0.146 | rucaparib 0.133 | [2] 0.128 | encorafenib 0.083 | [3] -0.132 | [4] 0.575 | filanesib -0.17 | zotarolimus 0.112 | idasanutlin 0.027 | alisertib 0.009 | [5] 0.001 | gefitinib 0.032 | [6] -0.034 | lapatinib 0.005 | pictilisib -0.03

MAP1A isoform 2 (UniProt P78559)
inactive: saracatinib -0.119 | sotrastaurin -0.002 | alvocidib 0.106 | Tubastatin A 0.109 | [1] -0.032 | defactinib 0.109 | rucaparib 0.106 | [2] 0.075 | encorafenib 0.078 | [3] 0.013 | [4] 0.046 | filanesib 0.108 | zotarolimus 0.03 | idasanutlin 0.099 | alisertib -0.085 | [5] -0.032 | gefitinib -0.034 | [6] -0.132 | lapatinib 0.138 | pictilisib 0.017

MAPRE1 (UniProt Q15691)
inactive: saracatinib -0.011 | sotrastaurin 0.013 | alvocidib -0.074 | Tubastatin A -0.021 | [1] 0.031 | defactinib -0.064 | rucaparib -0.046 | [2] 0.005 | encorafenib 0.013 | [3] 0.018 | [4] 0.007 | filanesib -0.039 | zotarolimus 0.031 | idasanutlin -0.072 | alisertib -0.021 | [5] 0.015 | gefitinib 0.003 | [6] -0.033 | lapatinib 0 | pictilisib 0.013

MAGEB1 (UniProt P43366)
inactive: saracatinib -0.108 | sotrastaurin -0.035 | alvocidib 0.178 | Tubastatin A 0.151 | [1] 0.03 | defactinib 0.306 | rucaparib 0.363 | [2] 0.162 | encorafenib 0.167 | [3] -0.032 | [4] -0.047 | filanesib 0.5 | zotarolimus 0.099 | idasanutlin 0.181 | alisertib -0.143 | [5] -0.128 | gefitinib 0.047 | [6] -0.27 | lapatinib 0.139 | pictilisib 0.008

LSM14A isoform 2 (UniProt Q8ND56)
inactive: saracatinib 0.016 | sotrastaurin 0.043 | alvocidib 0.042 | Tubastatin A 0.034 | [1] 0.035 | defactinib 0.043 | rucaparib 0.119 | [2] 0.112 | encorafenib -0.004 | [3] -0.007 | [4] -0.06 | filanesib 0.074 | zotarolimus -0.025 | idasanutlin -0.034 | alisertib -0.045 | [5] 0.152 | gefitinib -0.034 | [6] -0.032 | lapatinib -0.067 | pictilisib 0.056

Two neighbouring entries out of the list so far, for reference:
MAPRE2 (UniProt Q15555)
inactive: saracatinib 0 | sotrastaurin -0.089 | alvocidib -0.078 | Tubastatin A 0.047 | [1] -0.064 | defactinib -0.146 | rucaparib 0.133 | [2] 0.128 | encorafenib 0.083 | [3] -0.132 | [4] 0.575 | filanesib -0.17 | zotarolimus 0.112 | idasanutlin 0.027 | alisertib 0.009 | [5] 0.001 | gefitinib 0.032 | [6] -0.034 | lapatinib 0.005 | pictilisib -0.03

MAP1A isoform 2 (UniProt P78559)
inactive: saracatinib -0.119 | sotrastaurin -0.002 | alvocidib 0.106 | Tubastatin A 0.109 | [1] -0.032 | defactinib 0.109 | rucaparib 0.106 | [2] 0.075 | encorafenib 0.078 | [3] 0.013 | [4] 0.046 | filanesib 0.108 | zotarolimus 0.03 | idasanutlin 0.099 | alisertib -0.085 | [5] -0.032 | gefitinib -0.034 | [6] -0.132 | lapatinib 0.138 | pictilisib 0.017

Additional records:

MAP2K4 isoform 2 (UniProt P45985)
inactive: saracatinib 0.023 | sotrastaurin -0.005 | alvocidib -0.086 | Tubastatin A -0.033 | [1] -0.124 | defactinib -0.06 | rucaparib 0.107 | [2] -0.004 | encorafenib -0.014 | [3] 0.068 | [4] 0.041 | filanesib 0.026 | zotarolimus -0.003 | idasanutlin -0.027 | alisertib 0.014 | [5] 0.012 | gefitinib 0.017 | [6] 0.017 | lapatinib -0.045 | pictilisib -0.115

MACO1 (UniProt Q8N5G2)
inactive: saracatinib 0.005 | sotrastaurin 0.023 | alvocidib -0.001 | Tubastatin A 0.032 | [1] -0.044 | defactinib -0.008 | rucaparib 0.076 | [2] -0.005 | encorafenib 0.042 | [3] -0.001 | [4] -0.028 | filanesib 0.064 | zotarolimus -0.04 | idasanutlin 0.047 | alisertib -0.01 | [5] -0.071 | gefitinib 0.027 | [6] 0.01 | lapatinib 0.029 | pictilisib -0.04

MAPK6 (UniProt Q16659)
inactive: saracatinib -0.01 | sotrastaurin 0.09 | alvocidib 0.05 | Tubastatin A 0.038 | [1] 0.03 | defactinib 0.066 | rucaparib -0.01 | [2] 0.109 | encorafenib -0.019 | [3] -0.071 | [4] 0.176 | filanesib -0.013 | zotarolimus -0.009 | idasanutlin 0.188 | alisertib -0.023 | [5] 0.044 | gefitinib 0.019 | [6] 0.196 | lapatinib 0.028 | pictilisib -0.02

LSM1 (UniProt O15116)
inactive: saracatinib 0.018 | sotrastaurin 0.023 | alvocidib 0.026 | Tubastatin A -0.026 | [1] -0.068 | defactinib -0.004 | rucaparib -0.039 | [2] 0.018 | encorafenib -0.024 | [3] 0 | [4] -0.144 | filanesib 0.133 | zotarolimus 0.036 | idasanutlin 0.015 | alisertib -0.014 | [5] 0.03 | gefitinib 0.02 | [6] 0.067 | lapatinib -0.035 | pictilisib 0.1

MAN2A2 (UniProt P49641)
inactive: saracatinib 0.028 | sotrastaurin 0.009 | alvocidib -0.019 | Tubastatin A 0.011 | [1] 0.039 | defactinib -0.034 | rucaparib -0.008 | [2] 0.053 | encorafenib 0.018 | [3] 0.045 | [4] -0.043 | filanesib 0.044 | zotarolimus -0.042 | idasanutlin -0.01 | alisertib -0.141 | [5] 0.108 | gefitinib 0.083 | [6] -0.004 | lapatinib 0.042 | pictilisib 0.089

LYRM7 (UniProt Q5U5X0)
inactive: saracatinib -0.02 | sotrastaurin 0.029 | alvocidib -0.041 | Tubastatin A 0.019 | [1] 0.019 | defactinib -0.019 | rucaparib 0.013 | [2] -0.046 | encorafenib -0.028 | [3] -0.027 | [4] -0.027 | filanesib -0.075 | zotarolimus 0.029 | idasanutlin -0.077 | alisertib -0.094 | [5] -0.066 | gefitinib -0.051 | [6] 0.017 | lapatinib -0.061 | pictilisib 0.053

MACROD1 (UniProt Q9BQ69)
inactive: saracatinib 0.06 | sotrastaurin -0.024 | alvocidib -0.144 | Tubastatin A 0.209 | [1] 0.046 | defactinib -0.154 | rucaparib 0.108 | [2] -0.15 | encorafenib 0.064 | [3] -0.032 | [4] 0.134 | filanesib -0.012 | zotarolimus 0 | idasanutlin -0.118 | alisertib 0.03 | [5] 0.082 | gefitinib 0.068 | [6] -0.069 | lapatinib -0.027 | pictilisib 0.182

MAN2A1 (UniProt Q16706)
inactive: saracatinib 0.031 | sotrastaurin -0.004 | alvocidib -0.031 | Tubastatin A -0.025 | [1] 0.021 | defactinib -0.037 | rucaparib 0.001 | [2] -0.052 | encorafenib 0 | [3] -0.015 | [4] 0.027 | filanesib -0.016 | zotarolimus -0.01 | idasanutlin 0.058 | alisertib -0.023 | [5] 0.044 | gefitinib 0.041 | [6] 0.019 | lapatinib 0.002 | pictilisib -0.074
